Data: US20230092769A1 (SHANGHAI BENEMAE PHARMACEUTICAL CORPORATION, priority 2020, published 2023)
Where “and” joins values, the source holds several entries; their conditions need not be identical. Equal entries are not always repeated. Not every detail of the peptide structures is certain; ends, links or a residue may be inferred.

Legend:
Format in all cases: in vivo
[1] = test system: STZ-induced diabetic C57BL/6 mice; experiment: Blood glucose after single dosing in STZ-induced diabetic C57BL/6 mice (Example 2); conditions: for blood glucose 15 min / blood glucose 30 min / blood glucose 60 min / blood glucose 120 min / blood glucose 180 min / blood glucose 240 min / AUC(0-120 min) of blood glucose / blood glucose 0 min: single s.c. dose; for AUC(0-120 min) of blood glucose: in mM·min (unit assumed); for blood glucose 0 min: pre-dose
Description: Animals: Male C57BL/6 mice (n=70) were purchased from Shanghai Jihui Laboratory Animal Care Co., Ltd. Upon arrival, the mice were housed in an animal facility at Shanghai University of Medicine & Health Sciences, under constant temperature (20-24° C.) and humidity (40-70%). Housing was provided at 12:12-hour light-dark cycle.
Active agents: Insulin glargine was obtained from Sanofi and stored at a temperature of 2-8° C. Beinaglutide having the sequence of […](SEQ ID NO: 1) was obtained from Benemae (beinaglutide injection, 2 mg/mL) and stored at 2-8° C.
(§1) After one-week acclimation, the mice were fed with high fat diet with 60 kcal % fat (D12492, Research Diets) for 3 weeks before STZ injection. Diabetic model was induced with 5 consecutive days of multiple low-dose STZ injection (50 mg/kg, intraperitoneally; i.p.). During modeling period, the mice were fasted for 4 hours before STZ treatment each day. The STZ solution (5 mg/ml) was freshly prepared in 0.1 M sodium citrate buffer (pH 4.5) before use and injected within 10 minutes of preparation. Seven days later, the mice with non-fasted blood glucose between 16.7 mM and 27.7 mM were selected and randomized into different groups by blood glucose level and body weight. At 9 am (T=0 minute) of Day 1, the mice were subcutaneously administrated with vehicle, insulin glargine, beinaglutide, or a mixture of insulin glargine and beinaglutide, which were mixed immediately before injection (Table 3). After first injection, tail blood glucose levels were measured at various intervals after injection, at 15 minutes, 30 minutes, 60 minutes, 120 minutes, 180 minutes, and 240 minutes, respectively. Subsequently, the mice of four groups (No. 1, No. 2, No. 4, and No. 6) continued to receive multiple dosing for 4 weeks. Body weight was measured twice per week. On day 28, after blood glucose measurement, the mice were fasted for 6 hours from 9 am, followed by an oral glucose tolerance test (glucose solution: 1 g/kg, 10 ml/kg). The blood glucose was monitored at 0 minute (pre-glucose loading), 15 minutes, 30 minutes, 60 minutes and 120 minutes after glucose loading.

diabetic db/db mice = experiment: Blood glucose in db/db mice after s.c. insulin glargine (-15 min) and beinaglutide (0 min), Example 1, Studies 1 and 2
[2] = test system: STZ-induced diabetic C57BL/6 mice; experiment: Oral glucose tolerance test (OGTT) on Day 28, STZ-induced diabetic C57BL/6 mice; parameters: OGTT blood glucose AUC: unit: mM·min
Description: The mice fasted for about 6 hours were orally administrated with glucose solution (1 g/kg). Blood glucose was measured at indicated time points.
as §1

[3] = test system: STZ-induced diabetic C57BL/6 mice; experiment: Fasting blood glucose on Day 28 after 6 hours fasting, STZ-induced diabetic C57BL/6 mice; conditions: Day 28, 6 hours fasting, Bei 0.1 mg/kg multiple dosing
Description: as §1, with “Subsequently, the mice of four groups (No. 1, No. 2, No. 4, and No. 6) continued to receive multiple dosing for 4 weeks.” left out, “On day 28, after blood glucose measurement, the mice were fasted for 6 hours from 9 am, followed by an oral glucose tolerance test (glucose solution: 1 g/kg, 10 ml/kg).” left out
On Day 28, the fasting blood glucose was measured after 6 hours fasting.

[4] = Body weight change during 4-week multiple dosing in STZ-induced diabetic C57BL/6 mice; conditions: for body weight change Day 0 / body weight change Day 4 / body weight change Day 7 / body weight change Day 8 / body weight change Day 10 / body weight change Day 12 / body weight change Day 14 / body weight change Day 16 / body weight change Day 18 / body weight change Day 20 / body weight change Day 22 / body weight change Day 24 / body weight change Day 26 / body weight change Day 28: Beinaglutide 0.1 mg/kg s.c., 1st week bid, 2nd to 4th week tid; for body weight change Day 0: baseline
Description: as §1

[5] = Beinaglutide 0.1 mg/kg, group MEAN, n=6
[6] = Beinaglutide 0.1 mg/kg, individual animal
[7] = Beinaglutide 2.4 mg/kg, group MEAN, n=6
[8] = Beinaglutide 2.4 mg/kg, individual animal

## CC[C@H](C)[C@H](NC(=O)[C@H](Cc1ccccc1)NC(=O)[C@H](CCC(=O)O)NC(=O)[C@H](CCCCN)NC(=O)[C@H](C)NC(=O)[C@H](C)NC(=O)[C@H](CCC(N)=O)NC(=O)CNC(=O)[C@H](CCC(=O)O)NC(=O)[C@H](CC(C)C)NC(=O)[C@H](Cc1ccc(O)cc1)NC(=O)[C@H](CO)NC(=O)[C@H](CO)NC(=O)[C@@H](NC(=O)[C@H](CC(=O)O)NC(=O)[C@H](CO)NC(=O)[C@@H](NC(=O)[C@H](Cc1ccccc1)NC(=O)[C@@H](NC(=O)CNC(=O)[C@H](CCC(=O)O)NC(=O)[C@H](C)NC(=O)[C@@H](N)Cc1c[nH]cn1)[C@@H](C)O)[C@@H](C)O)C(C)C)C(=O)N[C@@H](C)C(=O)N[C@@H](Cc1c[nH]c2ccccc12)C(=O)N[C@@H](CC(C)C)C(=O)N[C@H](C(=O)N[C@@H](CCCCN)C(=O)NCC(=O)N[C@@H](CCCNC(=N)N)C(=O)O)C(C)C [Beinaglutide, beinaglutide]
[1]; [5]
  blood glucose 15 min: 23.82 mM
  blood glucose 30 min: 18.27 mM
  blood glucose 60 min: 20.67 mM
  blood glucose 120 min: 24.83 mM
  blood glucose 180 min: 27.97 mM
  blood glucose 240 min: 24.78 mM
  AUC(0-120 min) of blood glucose: 5390
  blood glucose 0 min: 26.67 mM
[1]; [6]
  blood glucose 15 min: 24.8 mM and 22.4 mM and 21.7 mM and 24.6 mM and 22.6 mM and 26.8 mM
  blood glucose 30 min: 16.3 mM and 17.7 mM and 20.2 mM and 17.4 mM and 19.3 mM and 18.7 mM
  blood glucose 60 min: 21.5 mM (2×) and 18.4 mM and 23.2 mM and 17.6 mM and 21.8 mM
  blood glucose 120 min: 21.8 mM and 24.8 mM and 21.3 mM and 24.1 mM and 30.7 mM and 26.3 mM
  blood glucose 180 min: 25.3 mM and 30.6 mM and 32 mM and 24.2 mM and 30.3 mM and 25.4 mM
  blood glucose 240 min: 22.1 mM and 23.8 mM and 22.9 mM and 21.8 mM and 28.2 mM and 29.9 mM
  AUC(0-120 min) of blood glucose: 5390 and 5786 and 5899 and 5301 and 6472 and 6011
  blood glucose 0 min: 25.9 mM and 24.8 mM and 25.3 mM and 26.2 mM and 28.2 mM and 29.6 mM
[1]; [7]
  blood glucose 15 min: 27.27 mM
  blood glucose 30 min: 19.74 mM
  blood glucose 60 min: 17.08 mM
  blood glucose 120 min: 17.80 mM
  blood glucose 180 min: 17.58 mM
  blood glucose 240 min: 23.45 mM
  AUC(0-120 min) of blood glucose: 4764
  blood glucose 0 min: 26.37 mM
[1]; Beinaglutide 2.4 mg/kg, group MEAN, n=6, listed as Bei
  AUC(0-120 min) of blood glucose: significant reduction of blood glucose
[1]; [8]
  blood glucose 15 min: 27.2 mM and 27.8 mM and 31.7 mM and 26.8 mM and 24.4 mM
  blood glucose 30 min: 19.63 mM and 19.8 mM and 18.6 mM and 20.8 mM and 19.3 mM and 20.3 mM
  blood glucose 60 min: 17.1 mM and 15.9 mM and 14.4 mM and 16.6 mM and 17.8 mM and 20.7 mM
  blood glucose 120 min: 18.8 mM and 18 mM and 14.4 mM and 16.3 mM and 21.5 mM and 17.8 mM
  blood glucose 180 min: 17.3 mM and 17.9 mM and 13.2 mM and 16.7 mM and 23.8 mM and 16.6 mM
  blood glucose 240 min: 27.4 mM and 28.9 mM and 27.6 mM and 18.1 mM and 20.1 mM and 18.6 mM
  AUC(0-120 min) of blood glucose: 4764 and 4777 and 4166 and 4447 and 5159 and 4565
  blood glucose 0 min: 23.9 mM and 24.9 mM and 26.4 mM and 31.1 mM and 26.8 mM and 25.1 mM
[1]; STZ-induced hyperglycemic mice, single s.c. administration
  blood glucose after a single administration (in words): significantly reduced blood glucose
Diabetic db/db mice; Study 1 (FIG. 1), beinaglutide monotherapy 2 mg/kg
  time until blood sugar level raised back to the level of the negative control group: four
Diabetic db/db mice; Study 2 (FIG. 2), beinaglutide monotherapy 0.3 mg/kg
  time until blood sugar level raised back to the level of the negative control group: ≤ 1.5 h
[2]; Beinaglutide 0.1 mpk, Day 28, group mean, 0 min
  OGTT blood glucose 0 min, MEAN: 18.12 mM
[2]; Beinaglutide 0.1 mpk, Day 28, group mean, 0-120 min
  OGTT blood glucose AUC, MEAN: 2660.63
[2]; Beinaglutide 0.1 mpk, Day 28, group mean, 15 min
  OGTT blood glucose 15 min, MEAN: 29.20 mM
[2]; Beinaglutide 0.1 mpk, Day 28, group mean, 30 min
  OGTT blood glucose 30 min, MEAN: 26.20 mM
[2]; Beinaglutide 0.1 mpk, Day 28, group mean, 60 min
  OGTT blood glucose 60 min, MEAN: 21.22 mM
[2]; Beinaglutide 0.1 mpk, Day 28, group mean, 120 min
  OGTT blood glucose 120 min, MEAN: 18.08 mM
[2]; Beinaglutide 0.1 mpk, Day 28, individual animals, 0 min
  OGTT blood glucose 0 min: 18.5 mM and 23.6 mM and 18.2 mM and 17.8 mM and 19 mM and 11.6 mM
[2]; Beinaglutide 0.1 mpk, Day 28, individual animals, 0-120 min
  OGTT blood glucose AUC: 2647.5 and 2991.0 and 2649.0 and 2430.0 and 2855.3 and 2391.0
[2]; Beinaglutide 0.1 mpk, Day 28, individual animals, 15 min
  OGTT blood glucose 15 min: 31.4 mM and 31.6 mM and 28.1 mM and 28.4 mM and 29.8 mM and 25.9 mM
[2]; Beinaglutide 0.1 mpk, Day 28, individual animals, 30 min
  OGTT blood glucose 30 min: 25.5 mM and 28 mM and 26.8 mM and 23.4 mM and 27.7 mM and 25.8 mM
[2]; Beinaglutide 0.1 mpk, Day 28, individual animals, 60 min
  OGTT blood glucose 60 min: 21 mM and 25.6 mM and 19.4 mM (2×) and 18.8 mM and 23.1 mM
[2]; Beinaglutide 0.1 mpk, Day 28, individual animals, 120 min
  OGTT blood glucose 120 min: 17.3 mM and 18.6 mM and 20.5 mM and 16.6 mM and 20.1 mM and 15.4 mM
[2]; Day 28, glucose 1 g/kg oral, Bei 0.1 mg/kg, IGlar 5 U/kg, or IGlar 5 U/kg & Bei 0.05 mg/kg multiple dosing
  blood glucose based on the AUC during OGTT (in words): significantly reduced blood glucose based on the AUC
[3]; group mean
  fasting blood glucose, Mean: 18.1 mM
[3]; individual animal, listed as Bei
  fasting blood glucose: 18.5 mM and 23.6 mM and 18.2 mM and 17.8 mM and 19 mM and 11.6 mM
[4]; group MEAN
  body weight change Day 0: 0.0 g
  body weight change Day 4: -0.6 g
  body weight change Day 7: -0.8 g
  body weight change Day 8: -1.1 g
  body weight change Day 10: -1.1 g
  body weight change Day 12: -1.1 g
  body weight change Day 14: -1.0 g
  body weight change Day 16: -1.2 g
  body weight change Day 18: -1.4 g
  body weight change Day 20: -1.2 g
  body weight change Day 22: -1.2 g
  body weight change Day 24: -1.1 g
  body weight change Day 26: -1.3 g
  body weight change Day 28: -1.0 g
[4]; individual animal
  body weight change Day 0: 0.0 g
  body weight change Day 4: -1.2 g and -0.6 g and -0.3 g and -0.2 g and -0.1 g and -1.1 g
  body weight change Day 7: −0.8 g (3×) and −0.6 g and −0.7 g and −1.2 g
  body weight change Day 8: −1.4 g (2×) and −1.1 g and −0.9 g (2×) and −1.2 g
  body weight change Day 10: −1.7 g and −1.5 g and −0.6 g and −0.8 g (2×) and −1.0 g
  body weight change Day 12: -1.9 g and -1.6 g and -1.2 g and -1.0 g and -0.6 g and -0.5 g
  body weight change Day 14: -1.3 g and -1.5 g and -0.5 g and -1.2 g and -1.0 g and -0.8 g
  body weight change Day 16: −1.3 g and −1.6 g and −0.4 g and −1.1 g and −1.4 g (2×)
  body weight change Day 18: -2.3 g and -1.9 g and -0.6 g and -1.5 g and -0.9 g and -1.2 g
  body weight change Day 20: −0.9 g (2×) and −2.0 g and −0.3 g and −1.6 g (2×)
  body weight change Day 22: −1.1 g (2×) and −2.1 g and −0.2 g and −0.9 g and −1.7 g
  body weight change Day 24: −0.9 g and −1.5 g (3×) and 0.0 g and −1.0 g
  body weight change Day 26: -0.8 g and -1.7 g and -0.1 g and -1.6 g and -2.3 g and -1.3 g
  body weight change Day 28: -0.4 g and -1.6 g and 0.0 g and -1.1 g and -2.1 g and -0.9 g
[4]; beinaglutide 0.1 mg/kg, 4-week treatment, given as decrease
  body weight decrease on Day 28: 1.0 ± 0.3 g
